Data: the supplement of paper PMC4635364
Counter-ions that a name gives are not always drawn. Some of the results follow. This data set is noisy: repeats of one test often differ as much as different tests do.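 ReNCell VM, a human fetal ventral-midbrain neural progenitor line, was differentiated without mitogens. Blinded raters scored images stained for doublecortin (early neurons) or tyrosine hydroxylase (dopaminergic neurons) against untreated wells (0 = no change). Scores were averaged across repeats and both raters, and compounds averaging 2 or more were selected as hits for retesting.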

Columns and labels:
ReNCell VM [1] = test: neuronal differentiation score (DCX+ cell fraction vs untreated, manual image score) (score (-3 to 3)); higher = more neuronal differentiation; details: 2 uM, 2 weeks
ReNCell VM [2] = test: dopaminergic neuron differentiation score (TH+ cell fraction vs untreated, manual image score) (score (0 to 3)); higher = more TH+ dopaminergic neuron differentiation; details: 2 uM, 4 weeks, BDNF 10 ng/ml + GDNF 10 ng/ml

## CC(CN)CC(=O)O (stereo unspecified) [3-Methyl-GABA]
ReNCell VM [1]; library: Tocriscreen
  neuronal differentiation score: inactive: 0
ReNCell VM [2]; library: Tocriscreen
  dopaminergic neuron differentiation score: inactive: 0

## CC1=C2C(=O)[C@H]3[C@@H](CC=C4C[C@@H](O)CC[C@@]43C)[C@@H]2CC[C@]12O[C@@H]1C[C@H](C)CN[C@H]1[C@H]2C [Jervine]
ReNCell VM [1]; library: Phytochemical
  neuronal differentiation score: inactive: 0
ReNCell VM [2]; library: Phytochemical
  dopaminergic neuron differentiation score: inactive: 0

## C=C[C@]12CN(C)[C@@H]3[C@H]4CO[C@H](C[C@H]41)[C@]1(C(=O)Nc4ccccc41)[C@@H]32 [Gelsemine]
ReNCell VM [1]; library: Phytochemical
  neuronal differentiation score: inactive: 0
ReNCell VM [2]; library: Phytochemical
  dopaminergic neuron differentiation score: inactive: 0

## COc1cc2c(cc1OC)[C@@]13CCN4CC5=CCO[C@H]6CC(=O)N2[C@H]1[C@H]6[C@H]5C[C@H]43 [Brucine]
ReNCell VM [1]; library: Phytochemical
  neuronal differentiation score: inactive: 0
ReNCell VM [2]; library: Phytochemical
  dopaminergic neuron differentiation score: inactive: 0

## NC(=O)CI [Iodoacetamide]
ReNCell VM [1]; library: LOPAC
  neuronal differentiation score: inactive: 0
ReNCell VM [2]; library: LOPAC
  dopaminergic neuron differentiation score: inactive: 0

## COc1cc2c3cc1Oc1c(OC)c(OC)cc4c1[C@@H](Cc1cccc(c1)Oc1ccc(c(O)c1)C[C@@H]3N(C)CC2)N(C)CC4
ReNCell VM [1]; library: Spectrum
  neuronal differentiation score: inactive: 0
ReNCell VM [2]; library: Spectrum
  dopaminergic neuron differentiation score: inactive: 0

## CS(=O)(=O)Nc1ccc(Cc2noc(-c3ccc4[nH]cc(CCN)c4c3)n2)cc1
ReNCell VM [1]; library: Tocriscreen
  neuronal differentiation score: inactive: 0
ReNCell VM [2]; library: Tocriscreen
  dopaminergic neuron differentiation score: inactive: 0

## O=C(CCCN1CCC(n2c(=O)[nH]c3ccccc32)CC1)c1ccc(F)cc1 [Benperidol]
ReNCell VM [1]; library: Prestwick
  neuronal differentiation score: inactive: 0
ReNCell VM [2]; library: Prestwick
  dopaminergic neuron differentiation score: inactive: 0

## CCC1(C2=NCCN2)Cc2ccccc2O1 (stereo unspecified)
ReNCell VM [1]; library: Spectrum
  neuronal differentiation score: inactive: 0
ReNCell VM [2]; library: Spectrum
  dopaminergic neuron differentiation score: inactive: 0

## CCn1cc(C(=O)O)c(=O)c2cc3c(cc21)OCO3
ReNCell VM [1]; library: Spectrum
  neuronal differentiation score: inactive: 0
ReNCell VM [2]; library: Spectrum
  dopaminergic neuron differentiation score: inactive: 0

## NNC(=O)c1ccc(O)cc1 [4-Hydroxybenzhydrazide]
ReNCell VM [1]; library: LOPAC
  neuronal differentiation score: inactive: -1
ReNCell VM [2]; library: LOPAC
  dopaminergic neuron differentiation score: inactive: 0

## O=C(N/N=C/c1ccc([N+](=O)[O-])o1)c1cc([N+](=O)[O-])cc([N+](=O)[O-])c1O
ReNCell VM [1]; library: Spectrum
  neuronal differentiation score: inactive: 0
ReNCell VM [2]; library: Spectrum
  dopaminergic neuron differentiation score: inactive: 0

## CN1CCN(c2ccc3ccccc3n2)CC1 [N-Methylquipazine dimaleate]
ReNCell VM [1]; library: Tocriscreen
  neuronal differentiation score: inactive: 0
ReNCell VM [2]; library: Tocriscreen
  dopaminergic neuron differentiation score: inactive: 0

## COc1ccc2[nH]c3c(c2c1)CCNC3 [6-Methoxy-1,2,3,4-tetrahydro-9H-pyrido[3,4b] indole]
ReNCell VM [1]; library: LOPAC
  neuronal differentiation score: inactive: 1
ReNCell VM [2]; library: LOPAC
  dopaminergic neuron differentiation score: inactive: 0

## O=C(CCCN1CCC2(CC1)C(=O)NCN2c1ccccc1)c1ccc(F)cc1 [Spiperone]
ReNCell VM [1]; library: Prestwick
  neuronal differentiation score: inactive: 0
ReNCell VM [2]; library: Prestwick
  dopaminergic neuron differentiation score: inactive: 0

## C[C@@H]1CC[C@]2(NC1)O[C@H]1C[C@H]3[C@@H]4CC=C5C[C@@H](O)CC[C@]5(C)[C@H]4CC[C@]3(C)[C@H]1[C@@H]2C [Solasodine]
ReNCell VM [1]; library: Phytochemical
  neuronal differentiation score: inactive: 0
ReNCell VM [2]; library: Phytochemical
  dopaminergic neuron differentiation score: inactive: 0

## CC(=O)NC1CCSC1=O (racemic) [N-Acetyl-DL-homocysteine Thiolactone]
ReNCell VM [1]; library: Prestwick
  neuronal differentiation score: inactive: 0
ReNCell VM [2]; library: Prestwick
  dopaminergic neuron differentiation score: inactive: 0

## CC(=O)OC1CN2CCC1CC2 (stereo unspecified)
ReNCell VM [1]; library: Spectrum
  neuronal differentiation score: inactive: 0
ReNCell VM [2]; library: Spectrum
  dopaminergic neuron differentiation score: inactive: 0

## CN1C(=O)CCS(=O)(=O)C1c1ccc(Cl)cc1 (stereo unspecified)
ReNCell VM [1]; library: Spectrum
  neuronal differentiation score: inactive: 1
ReNCell VM [2]; library: Spectrum
  dopaminergic neuron differentiation score: inactive: 0

## CN1C[C@H](CO)C=C2c3cccc4[nH]cc(c34)C[C@H]21 [Lysergol]
ReNCell VM [1]; library: Phytochemical
  neuronal differentiation score: inactive: 0
ReNCell VM [2]; library: Phytochemical
  dopaminergic neuron differentiation score: inactive: 0

## OC[C@@H]1CCCN2CCCC[C@H]12
ReNCell VM [1]; library: Spectrum
  neuronal differentiation score: inactive: 0
ReNCell VM [2]; library: Spectrum
  dopaminergic neuron differentiation score: inactive: 1

## CCC(Oc1ccc(Cl)cc1)C(=O)OC1C[C@H]2CC[C@@H](C1)N2C (stereo partly specified) [SM-21 maleate]
ReNCell VM [1]; library: Tocriscreen
  neuronal differentiation score: inactive: 0
ReNCell VM [2]; library: Tocriscreen
  dopaminergic neuron differentiation score: inactive: 0

## CNC(=O)OCC[N+](C)(C)C [Methylcarbamylcholine chloride]
ReNCell VM [1]; library: LOPAC
  neuronal differentiation score: inactive: 0
ReNCell VM [2]; library: LOPAC
  dopaminergic neuron differentiation score: inactive: 0

## CC(=O)O[C@@H]1C[C@@]2(C)[C@H](c3ccoc3)C[C@H]3O[C@]32[C@]2(C)C(=O)C(O)=C3C(C)(C)C(=O)C=C[C@]3(C)[C@@H]12
ReNCell VM [1]; library: Spectrum
  neuronal differentiation score: inactive: 0
ReNCell VM [2]; library: Spectrum
  dopaminergic neuron differentiation score: inactive: 0

## C[N+]1(C)CCOC(O)(c2ccc(-c3ccc(C4(O)C[N+](C)(C)CCO4)cc3)cc2)C1 (stereo unspecified) [Hemicholinium bromide]
ReNCell VM [1]; library: Prestwick
  neuronal differentiation score: inactive: 0
ReNCell VM [2]; library: Prestwick
  dopaminergic neuron differentiation score: inactive: 0

## COc1ccc(CN2CCNCC2)c(OC)c1OC [Trimetazidine dihydrochloride]
ReNCell VM [1]; library: Prestwick
  neuronal differentiation score: inactive: 0
ReNCell VM [2]; library: Prestwick
  dopaminergic neuron differentiation score: inactive: 0

## CN1CCc2cc(O)cc3c2[C@H]1Cc1ccc(O)c(O)c1-3 [R(-)-2,10,11-Trihydroxyaporphine hybrobromide]
ReNCell VM [1]; library: LOPAC
  neuronal differentiation score: inactive: -1
ReNCell VM [2]; library: LOPAC
  dopaminergic neuron differentiation score: inactive: 0

## CC(C)(c1ccc(OCC2CO2)cc1)c1ccc(OCC2CO2)cc1 (stereo unspecified)
ReNCell VM [1]; library: Tocriscreen
  neuronal differentiation score: inactive: 0
ReNCell VM [2]; library: Tocriscreen
  dopaminergic neuron differentiation score: inactive: 0

## O=C1C=CC(=O)c2c(O)cccc21
ReNCell VM [1]; library: Spectrum
  neuronal differentiation score: inactive: 0
ReNCell VM [2]; library: Spectrum
  dopaminergic neuron differentiation score: inactive: 0

## O=C(O)CCC1NCC2CC1CN1CCCCC21 (stereo unspecified)
ReNCell VM [1]; library: Spectrum
  neuronal differentiation score: inactive: 0
ReNCell VM [2]; library: Spectrum
  dopaminergic neuron differentiation score: inactive: 0

## C=C[C@H]1CN2CC[C@H]1C[C@H]2[C@H](O)c1ccnc2ccccc12 [(-)-Cinchonidine]
ReNCell VM [1]; library: Phytochemical
  neuronal differentiation score: inactive: 0
ReNCell VM [2]; library: Phytochemical
  dopaminergic neuron differentiation score: inactive: 0

## NCC(O)c1ccc(O)cc1 (stereo unspecified)
ReNCell VM [1]; library: Spectrum
  neuronal differentiation score: inactive: 0
ReNCell VM [2]; library: Spectrum
  dopaminergic neuron differentiation score: inactive: 0

## COc1ccc(CN2CCNCC2)c(OC)c1OC
ReNCell VM [1]; library: Spectrum
  neuronal differentiation score: inactive: 0
ReNCell VM [2]; library: Spectrum
  dopaminergic neuron differentiation score: inactive: 0
